In US10344054B2 (Ferring B.V., priority 2016, dated 2019):

Assay: general procedure: Fmoc solid-phase peptide synthesis; 2-chlorotrityl resin; HBTU/NMM in DMF (Tribute); HBTU/DIPEA in NMP (Symphony); DIC/HOBt or DIC/Oxyma P
Details: whole synthesis

Sar-Arg-Val-Tyr-Val-His-Pro-(D-Phe(2-Cl))—OH
isolated yield (based on 75% peptide content, scale 5 mmol): 45% | crude mass (scale 5 mmol): 5.01 g | isolated mass (scale 5 mmol): 3039 mg

Glac-Arg-Val-Tyr-Cpg-His-Pro-(D-Phe(2-Cl))—OH
isolated yield (based on 78.7% peptide content, scale 0.25 mmol): 17% | isolated mass (scale 0.25 mmol): 66.6 mg

Sar-Arg-Val-Tyr-Val-His-Pro-(D-Phe(2-Me))—OH
isolated yield (based on 82.5% peptide content, scale 42 mmol, acetate salt): 57.9% | crude mass (scale 42 mmol): 43.9 g | isolated mass (scale 42 mmol, acetate salt): 29532 mg

Glac-Arg-Val-Tyr-Chg-His-Pro-(D-Phe(2-Me))—OH
isolated yield (based on 75.7% peptide content, scale 1 mmol): 38% | isolated mass (scale 1 mmol): 601.2 mg

Glac-Arg-Val-Tyr-Val-His-Pro-(D-Phe(2-Cl))—OH
isolated yield (based on 80% peptide content, scale 3 mmol): 46% | isolated mass (scale 3 mmol): 2013.5 mg

Sar-Arg-Val-Tyr-Val-His-Pro-(D-1Nal)-OH
isolated yield (based on 74.3% peptide content): 29%

Glac-Arg-Val-Tyr-Chg-His-Pro-(D-Phe(2-Cl))—OH
isolated yield (based on 83.5% peptide content, scale 1 mmol): 32% | isolated mass (scale 1 mmol): 384 mg
